In patent publication US8003661B2, “Naphthalene and quinoline sulfonylurea derivatives as EP4 receptor antagonists” (Merck Canada Inc., priority 2007, dated 2011):
Some entries share one result that the patent states for a list of compounds.

Sequences of proteins named here, by UniProt entry; tags and fusion partners are left off. A change or cut given only in a name is not applied to a line headed by its entry.
UniProt P35408: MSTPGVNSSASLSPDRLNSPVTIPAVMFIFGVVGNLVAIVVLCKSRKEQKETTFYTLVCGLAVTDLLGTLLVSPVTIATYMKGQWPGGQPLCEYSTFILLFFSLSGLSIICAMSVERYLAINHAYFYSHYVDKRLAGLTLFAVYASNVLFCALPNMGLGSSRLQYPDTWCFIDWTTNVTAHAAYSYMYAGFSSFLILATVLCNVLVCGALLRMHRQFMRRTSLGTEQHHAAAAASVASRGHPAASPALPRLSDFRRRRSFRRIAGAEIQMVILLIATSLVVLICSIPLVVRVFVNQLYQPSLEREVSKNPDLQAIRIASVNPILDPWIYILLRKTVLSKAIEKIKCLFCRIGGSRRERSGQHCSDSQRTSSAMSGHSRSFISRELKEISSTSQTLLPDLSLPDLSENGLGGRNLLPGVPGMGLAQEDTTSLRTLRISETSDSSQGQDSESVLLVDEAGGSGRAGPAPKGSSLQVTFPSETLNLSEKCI

Columns and labels:
EP4 receptor [1] = molecular target: T1, EP4 receptor (Homo sapiens, UniProt P35408); test: Prostanoid receptor binding assay for the EP4 receptor; design: expressed in transfected cells; host or cells: HEK 293(ebna) cells (membranes); details: membranes of transfected HEK 293(ebna) cells, radioligand binding
EP4 receptor [2] = molecular target: T1, EP4 receptor; test: EP4 receptor antagonist assay (whole cell cAMP accumulation in HEK-293(ebna)-hEP4 cells); type: cell-based; design: expressed in transfected cells; host or cells: HEK-293(ebna)-hEP4 cells; details: in the presence of PGE2 at its EC70

COc1cc(C)ccc1S(=O)(=O)NC(=O)NC1(Cc2ccc(N3Cc4c(c(OCC(F)(F)F)c5cccnc5c4OCC(F)(F)F)C3=O)c(C)c2)CC1 [Example 19, 2-methoxy-4-methyl-N-{[(1-{3-methyl-4-[6-oxo-5,9-bis(2,2,2-trifluoroethoxy)-6,8-dihydro-7H-pyrrolo[3,4-g]quinolin-7-yl]benzyl}cyclopropyl)amino]carbonyl}benzenesulfonamide]
IC50 (EP4 receptor [1]): < 500 nM
EC50 (EP4 receptor [2]): < 1000 nM

CCOc1c2c(c(OCC)c3ccccc13)C(=O)N(c1ccc(CC3(NC(=O)NS(=O)(=O)c4c(C(F)(F)F)cccc4C(F)(F)F)CC3)cc1C)C2 [Example 10, N-[({1-[4-(4,9-diethoxy-1-oxo-1,3-dihydro-2H-benzo[f]isoindol-2-yl)-3-methylbenzyl]cyclopropyl}amino)carbonyl]-2,6-bis(trifluoromethyl) benzenesulfonamide]
IC50 (EP4 receptor [1]): < 500 nM
EC50 (EP4 receptor [2]): < 1000 nM

CCOc1c2c(c(OCC)c3ccccc13)C(=O)N(c1ccc(C(F)(F)CNC(=O)NS(=O)(=O)c3ccccc3Cl)cc1C)C2 [Example 17, 2-chloro-N-[({2-[4-(4,9-diethoxy-1-oxo-1,3-dihydro-2H-benzo[f]isoindol-2-yl)-3-methylphenyl]-2,2-difluoroethyl]amino)carbonyl] benzenesulfonamide]
IC50 (EP4 receptor [1]): < 500 nM
EC50 (EP4 receptor [2]): < 1000 nM

Cc1ccc(S(=O)(=O)NC(=O)NCCc2ccc(N3Cc4c(c(OC(F)F)c5ccccc5c4OC(F)F)C3=O)c(C)c2)cc1 [Example 15, N-{[(2-{4-[4,9-bis(difluoromethoxy)-1-oxo-1,3-dihydro-2H-benzo[f]isoindol-2-yl]-3-methylphenyl}ethyl)amino]carbonyl}-4-methylbenzenesulfonamide]
IC50 (EP4 receptor [1]): < 500 nM
EC50 (EP4 receptor [2]): < 1000 nM
